The list shows a part of the results, in another mix than the full data. This is a noisy data set.

Sequences of proteins named here, by UniProt entry; tags and fusion partners are left off. A change or cut given only in a name is not applied to a line headed by its entry.
UniProt Q9NRL3: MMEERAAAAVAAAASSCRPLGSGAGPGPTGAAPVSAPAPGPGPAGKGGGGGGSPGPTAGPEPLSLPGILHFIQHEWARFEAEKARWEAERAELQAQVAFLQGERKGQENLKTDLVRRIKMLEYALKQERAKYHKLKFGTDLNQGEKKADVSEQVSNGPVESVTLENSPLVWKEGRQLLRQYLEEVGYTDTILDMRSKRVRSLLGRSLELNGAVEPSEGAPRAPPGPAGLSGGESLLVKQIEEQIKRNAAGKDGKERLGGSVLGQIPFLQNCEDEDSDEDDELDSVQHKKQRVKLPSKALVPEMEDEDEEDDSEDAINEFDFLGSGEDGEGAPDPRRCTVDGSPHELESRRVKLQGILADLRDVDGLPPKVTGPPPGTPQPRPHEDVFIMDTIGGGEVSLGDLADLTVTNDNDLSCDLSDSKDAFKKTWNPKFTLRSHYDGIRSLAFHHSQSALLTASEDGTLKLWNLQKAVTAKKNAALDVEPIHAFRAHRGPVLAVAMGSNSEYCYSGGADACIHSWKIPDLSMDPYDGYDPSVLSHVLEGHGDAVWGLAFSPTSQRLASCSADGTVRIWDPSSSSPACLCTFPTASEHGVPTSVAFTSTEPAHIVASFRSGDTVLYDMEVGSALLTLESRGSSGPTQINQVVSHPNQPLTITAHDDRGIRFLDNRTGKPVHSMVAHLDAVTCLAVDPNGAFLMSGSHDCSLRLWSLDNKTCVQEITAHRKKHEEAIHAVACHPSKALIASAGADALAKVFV
UniProt Q9HCS7: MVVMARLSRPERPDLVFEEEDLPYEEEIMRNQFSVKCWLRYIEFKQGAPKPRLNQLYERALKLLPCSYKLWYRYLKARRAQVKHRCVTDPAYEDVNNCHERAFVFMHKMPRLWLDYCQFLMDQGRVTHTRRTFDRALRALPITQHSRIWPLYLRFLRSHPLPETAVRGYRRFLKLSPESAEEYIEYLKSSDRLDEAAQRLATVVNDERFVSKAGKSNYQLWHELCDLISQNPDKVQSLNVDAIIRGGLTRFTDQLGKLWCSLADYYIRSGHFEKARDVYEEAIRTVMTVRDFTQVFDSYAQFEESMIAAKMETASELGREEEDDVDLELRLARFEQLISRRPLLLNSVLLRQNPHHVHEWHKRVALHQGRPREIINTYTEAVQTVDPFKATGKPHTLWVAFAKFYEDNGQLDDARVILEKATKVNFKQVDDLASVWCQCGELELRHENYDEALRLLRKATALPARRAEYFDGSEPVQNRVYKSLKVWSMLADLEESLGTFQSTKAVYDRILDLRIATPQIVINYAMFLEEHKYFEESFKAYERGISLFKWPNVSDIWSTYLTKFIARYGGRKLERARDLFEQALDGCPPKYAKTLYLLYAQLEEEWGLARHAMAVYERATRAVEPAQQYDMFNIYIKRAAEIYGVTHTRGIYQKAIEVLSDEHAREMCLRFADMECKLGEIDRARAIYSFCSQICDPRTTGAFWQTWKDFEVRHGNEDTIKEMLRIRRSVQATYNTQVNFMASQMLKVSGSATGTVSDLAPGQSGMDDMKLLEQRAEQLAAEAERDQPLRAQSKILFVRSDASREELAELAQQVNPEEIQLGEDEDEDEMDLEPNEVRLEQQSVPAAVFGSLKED
UniProt Q9NR50: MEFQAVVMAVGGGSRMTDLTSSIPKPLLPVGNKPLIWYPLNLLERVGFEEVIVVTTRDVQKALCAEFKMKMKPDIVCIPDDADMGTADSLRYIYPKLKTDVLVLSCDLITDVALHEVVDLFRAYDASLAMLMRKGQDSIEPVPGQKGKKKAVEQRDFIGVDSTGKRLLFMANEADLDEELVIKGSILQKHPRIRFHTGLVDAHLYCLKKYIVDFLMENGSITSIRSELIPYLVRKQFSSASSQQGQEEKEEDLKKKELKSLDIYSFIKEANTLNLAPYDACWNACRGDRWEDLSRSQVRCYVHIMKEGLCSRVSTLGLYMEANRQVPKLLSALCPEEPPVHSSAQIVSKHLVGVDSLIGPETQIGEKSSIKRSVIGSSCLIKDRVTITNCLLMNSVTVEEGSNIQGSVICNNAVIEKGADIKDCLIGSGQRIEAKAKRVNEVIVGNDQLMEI
UniProt Q9NR31: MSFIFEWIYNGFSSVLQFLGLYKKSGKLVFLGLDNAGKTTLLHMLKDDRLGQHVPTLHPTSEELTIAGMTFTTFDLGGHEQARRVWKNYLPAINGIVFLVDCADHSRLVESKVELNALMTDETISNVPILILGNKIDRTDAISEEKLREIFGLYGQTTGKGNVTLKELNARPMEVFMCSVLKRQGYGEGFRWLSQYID
UniProt Q9H9L3: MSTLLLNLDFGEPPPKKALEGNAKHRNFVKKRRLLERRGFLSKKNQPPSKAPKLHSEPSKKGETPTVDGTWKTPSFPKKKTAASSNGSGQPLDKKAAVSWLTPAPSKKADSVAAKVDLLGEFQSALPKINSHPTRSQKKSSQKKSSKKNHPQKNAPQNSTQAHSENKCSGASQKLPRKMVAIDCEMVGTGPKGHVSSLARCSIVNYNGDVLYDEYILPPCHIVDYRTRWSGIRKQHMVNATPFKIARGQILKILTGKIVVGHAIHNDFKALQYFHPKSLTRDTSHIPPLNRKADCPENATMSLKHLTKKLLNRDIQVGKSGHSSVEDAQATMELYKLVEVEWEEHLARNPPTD
UniProt Q9NR30: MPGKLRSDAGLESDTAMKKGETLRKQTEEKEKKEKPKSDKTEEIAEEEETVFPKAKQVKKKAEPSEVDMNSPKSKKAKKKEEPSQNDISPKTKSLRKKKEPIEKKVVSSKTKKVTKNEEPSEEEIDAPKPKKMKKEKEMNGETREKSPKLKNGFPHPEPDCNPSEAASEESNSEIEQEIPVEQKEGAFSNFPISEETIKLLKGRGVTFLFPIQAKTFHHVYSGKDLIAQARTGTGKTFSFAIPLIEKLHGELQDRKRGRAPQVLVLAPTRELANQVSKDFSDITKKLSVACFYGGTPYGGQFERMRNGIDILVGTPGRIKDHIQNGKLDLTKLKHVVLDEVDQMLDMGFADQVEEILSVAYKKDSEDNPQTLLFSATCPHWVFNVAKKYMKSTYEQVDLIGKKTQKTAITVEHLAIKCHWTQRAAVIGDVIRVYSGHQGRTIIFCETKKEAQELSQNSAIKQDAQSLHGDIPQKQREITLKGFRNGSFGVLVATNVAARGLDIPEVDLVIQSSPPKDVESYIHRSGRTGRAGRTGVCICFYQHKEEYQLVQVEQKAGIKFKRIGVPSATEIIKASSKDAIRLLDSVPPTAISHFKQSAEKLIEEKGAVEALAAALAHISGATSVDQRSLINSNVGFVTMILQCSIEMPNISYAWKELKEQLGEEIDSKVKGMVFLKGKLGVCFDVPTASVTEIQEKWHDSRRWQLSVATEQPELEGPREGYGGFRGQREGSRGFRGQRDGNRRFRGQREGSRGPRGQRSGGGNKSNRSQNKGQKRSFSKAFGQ
UniProt Q9H3Q1: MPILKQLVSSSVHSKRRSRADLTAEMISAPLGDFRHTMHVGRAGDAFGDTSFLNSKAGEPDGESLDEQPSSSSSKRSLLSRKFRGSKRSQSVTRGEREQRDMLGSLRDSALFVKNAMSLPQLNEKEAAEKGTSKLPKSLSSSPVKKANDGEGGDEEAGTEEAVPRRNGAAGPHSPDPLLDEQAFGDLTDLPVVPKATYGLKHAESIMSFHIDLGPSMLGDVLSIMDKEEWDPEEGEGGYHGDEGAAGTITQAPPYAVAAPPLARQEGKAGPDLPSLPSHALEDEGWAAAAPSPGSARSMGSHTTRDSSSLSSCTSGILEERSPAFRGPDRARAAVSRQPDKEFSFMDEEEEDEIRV
UniProt Q9NQZ2: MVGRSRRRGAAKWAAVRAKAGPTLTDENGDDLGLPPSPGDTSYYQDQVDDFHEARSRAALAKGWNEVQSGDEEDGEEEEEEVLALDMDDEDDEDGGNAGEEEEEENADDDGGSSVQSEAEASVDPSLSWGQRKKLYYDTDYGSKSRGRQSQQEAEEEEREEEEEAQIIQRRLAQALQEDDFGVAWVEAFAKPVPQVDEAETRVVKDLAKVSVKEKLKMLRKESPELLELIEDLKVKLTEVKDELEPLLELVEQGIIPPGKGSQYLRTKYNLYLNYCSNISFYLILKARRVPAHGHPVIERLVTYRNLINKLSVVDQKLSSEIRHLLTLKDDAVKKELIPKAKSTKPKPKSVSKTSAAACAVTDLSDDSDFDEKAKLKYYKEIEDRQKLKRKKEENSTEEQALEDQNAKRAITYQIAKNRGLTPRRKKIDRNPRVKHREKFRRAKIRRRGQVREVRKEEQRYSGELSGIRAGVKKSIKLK
UniProt Q9HAV4: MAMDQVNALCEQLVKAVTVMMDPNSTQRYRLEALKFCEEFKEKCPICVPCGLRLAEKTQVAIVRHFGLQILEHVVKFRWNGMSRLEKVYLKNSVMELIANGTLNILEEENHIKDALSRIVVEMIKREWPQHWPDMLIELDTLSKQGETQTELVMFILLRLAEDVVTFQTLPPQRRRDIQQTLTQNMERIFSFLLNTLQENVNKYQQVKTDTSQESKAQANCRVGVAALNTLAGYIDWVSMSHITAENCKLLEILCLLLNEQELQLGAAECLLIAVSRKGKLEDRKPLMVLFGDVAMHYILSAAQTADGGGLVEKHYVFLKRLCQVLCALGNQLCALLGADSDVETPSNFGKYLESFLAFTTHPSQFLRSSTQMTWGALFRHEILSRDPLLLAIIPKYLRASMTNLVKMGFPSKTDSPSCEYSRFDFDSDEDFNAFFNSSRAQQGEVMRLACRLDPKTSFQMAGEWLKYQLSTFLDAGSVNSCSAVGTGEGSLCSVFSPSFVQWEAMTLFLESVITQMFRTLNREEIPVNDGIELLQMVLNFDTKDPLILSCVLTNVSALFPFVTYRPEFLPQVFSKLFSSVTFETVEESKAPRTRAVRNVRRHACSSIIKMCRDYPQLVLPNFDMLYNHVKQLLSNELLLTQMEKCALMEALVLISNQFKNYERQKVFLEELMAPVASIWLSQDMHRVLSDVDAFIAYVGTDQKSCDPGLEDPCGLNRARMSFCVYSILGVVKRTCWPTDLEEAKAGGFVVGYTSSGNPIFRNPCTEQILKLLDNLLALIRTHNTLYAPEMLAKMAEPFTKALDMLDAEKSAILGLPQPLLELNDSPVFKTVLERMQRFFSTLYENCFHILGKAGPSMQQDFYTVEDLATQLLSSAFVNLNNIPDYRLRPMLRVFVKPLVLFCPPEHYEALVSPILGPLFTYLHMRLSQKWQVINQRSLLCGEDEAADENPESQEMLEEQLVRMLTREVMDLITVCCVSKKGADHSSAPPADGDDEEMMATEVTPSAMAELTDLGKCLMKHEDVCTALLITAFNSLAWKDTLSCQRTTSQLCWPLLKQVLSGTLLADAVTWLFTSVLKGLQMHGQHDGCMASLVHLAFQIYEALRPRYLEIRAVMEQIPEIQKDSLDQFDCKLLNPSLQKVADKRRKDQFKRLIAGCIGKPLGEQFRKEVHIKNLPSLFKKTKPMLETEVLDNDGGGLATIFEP
UniProt Q9H840: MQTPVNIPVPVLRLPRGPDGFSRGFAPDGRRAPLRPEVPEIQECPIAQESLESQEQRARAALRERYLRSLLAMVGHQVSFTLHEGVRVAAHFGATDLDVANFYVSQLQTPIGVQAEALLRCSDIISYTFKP
UniProt Q9NQ55: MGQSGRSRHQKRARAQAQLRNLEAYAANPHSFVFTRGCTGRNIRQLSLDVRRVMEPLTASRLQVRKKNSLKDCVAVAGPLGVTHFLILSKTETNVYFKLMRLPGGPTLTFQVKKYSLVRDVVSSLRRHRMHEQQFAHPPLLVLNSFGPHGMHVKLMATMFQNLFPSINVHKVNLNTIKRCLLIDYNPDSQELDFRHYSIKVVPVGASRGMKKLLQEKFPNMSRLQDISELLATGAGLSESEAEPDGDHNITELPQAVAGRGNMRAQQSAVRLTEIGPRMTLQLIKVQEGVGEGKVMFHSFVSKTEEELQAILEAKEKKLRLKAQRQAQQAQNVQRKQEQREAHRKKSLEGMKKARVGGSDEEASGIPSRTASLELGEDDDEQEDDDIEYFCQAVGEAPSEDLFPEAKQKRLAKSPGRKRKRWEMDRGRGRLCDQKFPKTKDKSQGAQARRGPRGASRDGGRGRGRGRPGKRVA
UniProt Q9H814, whole entry, looked up: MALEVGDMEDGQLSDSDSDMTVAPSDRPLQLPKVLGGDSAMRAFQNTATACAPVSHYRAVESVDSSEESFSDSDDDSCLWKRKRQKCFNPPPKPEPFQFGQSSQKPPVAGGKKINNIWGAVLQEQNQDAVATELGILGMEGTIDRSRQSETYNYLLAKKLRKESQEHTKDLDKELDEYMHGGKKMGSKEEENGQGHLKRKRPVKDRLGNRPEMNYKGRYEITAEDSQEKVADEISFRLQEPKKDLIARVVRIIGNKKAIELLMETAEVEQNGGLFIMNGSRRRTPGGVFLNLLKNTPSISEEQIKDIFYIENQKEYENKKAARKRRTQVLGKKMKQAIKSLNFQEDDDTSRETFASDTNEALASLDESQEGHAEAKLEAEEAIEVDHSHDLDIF

Compound in the experiment: COC(=O)/C=C/c1ccccc1 [methyl cinnamate]
Put plainly: log2 ratio of iodoacetamide-alkyne labeling of the cysteine site, DMSO over compound (competition); higher = stronger covalent engagement of the cysteine by the compound, active = 1 or more. The note with it: 500 µM; treatment time 1 h; system: HEK293T cell lysate. In a few lines:
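HEK293T lysate (2 mg/mL) was treated with DMSO or electrophile (500 µM, 1 h, ambient temperature), then iodoacetamide alkyne (1 h), clicked to sCIP-TMT reagents, pooled, trypsin-digested overnight at 37 °C, streptavidin-enriched and acid-eluted. Peptides were run on Orbitrap Eclipse LC-MS/MS with FAIMS and quantified in FragPipe. The log2 competition ratio per cysteine is mean control-channel over mean compound-channel reporter intensity. Duplicate channels and three replicates were used, and cysteines quantified in only one replicate were excluded.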
As for MDN1 C1394 (UniProt Q9NU22), the “log2 ratio of iodoacetamide-alkyne labeling” value (from here on “log2 ratio”) was inactive: 0.0468.

As for STRN4 C562 (UniProt Q9NRL3), the “log2 ratio” value was inactive: 0.244.

Turning to XAB2 C117 (UniProt Q9HCS7), the “log2 ratio” value was inactive: 0.12.

On to SLC25A22 C25 (UniProt Q9H936), for which the “log2 ratio” value was inactive: 0.0886.

As for EIF2B3 C334 (UniProt Q9NR50), the “log2 ratio” value was inactive: 0.16.

Take SAR1A C102 (UniProt Q9NR31): the “log2 ratio” value was inactive: -0.106.

Regarding ISG20L2 C220 (UniProt Q9H9L3), the “log2 ratio” value is inactive: -0.0878.

DDX21 C291 (UniProt Q9NR30): the “log2 ratio” value is inactive: 0.214.

As for CDC42EP4 C313 (UniProt Q9H3Q1), the “log2 ratio” value is inactive: 0.381.

Regarding BIRC6 C381 (UniProt Q9NR09), the “log2 ratio” value was inactive: 0.297.

Turning to UTP3 C359 (UniProt Q9NQZ2), the “log2 ratio” value was inactive: 0.14.

XPO5 C941 (UniProt Q9HAV4): the “log2 ratio” value is inactive: -0.0404.

For the target GEMIN7 C44 (UniProt Q9H840), the “log2 ratio” value was inactive: 0.117.

For PPAN C432 (UniProt Q9NQ55), the “log2 ratio” value is inactive: 0.263.

As to PHAX C87 (UniProt Q9H814), the “log2 ratio” value is inactive: 0.706.

These data come from the supplement of paper PMC11006884.
